According to PubChem BioAssay AID1671190 (National Center for Advancing Translational Sciences (NCATS), 2021):
About 6,100 (1.1%) of roughly 580,000 compounds were called active. The shares of active, inactive and inconclusive entries below differ from those in the screen. The call rests on the fitted dose curve; in most records, active means well fitted inhibition curve with a large enough effect; inconclusive means small, poorly fitted or top-dose-only effect, or another doubt; inactive means no such curve, though single readings can be large or run the other way. Where the call is inconclusive, the potency comes from a doubtful curve fit.

Protein sequences, listed by entry. Tags and fused reporters are not part of them. Lines headed by an entry give the natural chain unless they say otherwise; changes in a name come on top.
UniProt P18054: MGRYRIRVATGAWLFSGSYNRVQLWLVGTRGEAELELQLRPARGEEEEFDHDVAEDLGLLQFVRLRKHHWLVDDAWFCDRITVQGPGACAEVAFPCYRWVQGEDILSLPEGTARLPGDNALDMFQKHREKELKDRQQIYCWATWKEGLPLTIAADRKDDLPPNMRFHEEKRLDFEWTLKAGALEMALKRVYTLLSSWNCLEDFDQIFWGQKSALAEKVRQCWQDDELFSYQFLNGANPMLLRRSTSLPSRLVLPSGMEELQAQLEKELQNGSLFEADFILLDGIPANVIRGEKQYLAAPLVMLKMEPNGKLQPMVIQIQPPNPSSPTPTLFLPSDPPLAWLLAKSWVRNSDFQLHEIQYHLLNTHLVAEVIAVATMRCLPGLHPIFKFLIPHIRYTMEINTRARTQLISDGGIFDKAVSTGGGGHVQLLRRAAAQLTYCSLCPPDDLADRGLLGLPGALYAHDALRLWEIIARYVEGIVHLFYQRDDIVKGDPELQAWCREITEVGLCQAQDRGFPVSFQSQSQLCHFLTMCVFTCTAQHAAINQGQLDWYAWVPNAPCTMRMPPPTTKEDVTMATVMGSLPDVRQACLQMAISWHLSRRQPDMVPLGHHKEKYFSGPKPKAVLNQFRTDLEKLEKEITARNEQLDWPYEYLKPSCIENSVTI

molecular target: Polyunsaturated fatty acid lipoxygenase ALOX12 (Homo sapiens) (UniProt P18054); assay: Primary qHTS assay for inhibitors of human arachidonate 12S-lipoxygenase (ALOX12): Round 2; details: purified 12hLO, xylenol orange hydroperoxide absorbance; activity change, negative = inhibition: at 108 µM (top of the series) unless noted
In short: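 Hydroperoxide product was detected by ferrous iron/xylenol orange as the 573 to 405 nm absorbance ratio. Arachidonic acid at 40 uM (final) was turned over for 30 min at room temperature by 150 nM human 12hLO, pH 7.0 Hepes buffer, after 15 min compound preincubation.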
On the % scale 0 is the no-effect control and ±100 the full control effect; potency means the concentration at half of the fitted maximal effect.

SMILES | Potency | activity change, negative = inhibition
C=CCNC(=O)C1=NOC(CNC(=O)c2c(-c3ccccc3Cl)noc2C)C1 (stereo unspecified) | inactive | –
COc1ccc(NC(=O)CCNS(=O)(=O)c2ccc3c(c2)CCC(=O)N3)cc1 | inactive | –
COc1ccc(CN2CCC(n3cc(C(=O)N4CCCCC4)nn3)CC2)c(OC)c1 | inactive | –
Cc1ccc(NC(=O)Cn2c(N3CCN(c4ccccc4)CC3)nc(C)cc2=O)cc1 | inconclusive: 14.1 µM [inhibitor, partial curve, poor fit] | –
CCC(C)c1ccc2oc(-c3cccc(NC(=O)c4cccnc4)c3)nc2c1 (stereo unspecified) | inconclusive: 50.1 µM [inhibitor, partial curve, poor fit] | –
CN(C)CCNC(=O)c1ccc(-n2c(-c3ccccc3)cc3c2CCCC3)cc1 | inconclusive: 50.1 µM [inhibitor, partial curve, poor fit] | –
CCc1cc(=O)oc2c(C)c(OCc3ccc(OC)cc3)ccc12 | inactive | –
COc1cccc(NC(=O)CN(C)CC(=O)Nc2ccccc2C)c1 | inconclusive: 6.31 µM [inhibitor, full curve] | –
CCN1C(=NCCOC)N[C@@H](CCc2ccccc2)[C@H](C(=O)OC)[C@H]1C | inconclusive: 79.4 µM [inhibitor, partial curve, poor fit] | –
O=C(NNC(=O)c1cccc(Cl)c1)NNC(=O)c1cccc(Cl)c1 | inactive | –
O=C(O)Cc1ccc(NC(=O)c2ccc3c(c2)C(=O)N(Cc2ccco2)C3=O)cc1 | inconclusive: 28.2 µM [inhibitor, full curve, poor fit] | –
O=C1c2cccnc2C(=O)N1Cc1ccc(F)cc1S(=O)(=O)NCc1ccco1 | inconclusive: 39.8 µM [inhibitor, partial curve, poor fit] | –
Cc1ccc(C2=NN3C(C2)c2ccccc2OC32C(=O)Nc3ccccc32)cc1 (stereo unspecified) | inconclusive: 31.6 µM [inhibitor, single point] | –
O=C1CCC[C@H]2[C@@H](Cc3ccccc3)[C@@H](NS(=O)(=O)c3ccc(C(F)(F)F)cc3)CC[C@]23CCCN13 | inactive | –
CC(=NNc1ccc2ccccc2n1)c1ccccn1 | inconclusive: 31.6 µM [inhibitor, partial curve, poor fit] | –
O=C(C1CCCCC1)N1CCC(Cc2ccccc2)(C(=O)O)CC1 | – | inactive: 7.2% [at 6.33 µM]
Cc1ccc(C(=O)NCCn2c(C)cc3ccccc32)cc1C | inconclusive: 0.0794 µM [inhibitor, full curve, poor fit] | –
CC1(C)CC(=O)C2=C(C1)OC(N)=C(C#N)C2c1ccc(F)cc1 (stereo unspecified) | inconclusive: 39.8 µM [inhibitor, partial curve, poor fit] | –
O=C(Nc1ccc2c(c1)OCCO2)C(CCc1ccccc1)N1CCC(Cc2ccccc2)CC1 (stereo unspecified) | inconclusive: 3.98 µM [inhibitor, full curve, poor fit] | –
CCOC(=O)c1ccc(NC(=O)c2nc[nH]c2C(=O)NC)cc1 | inactive | –
CC(=O)c1c(C)[nH]c(C(=O)C(C)OC(=O)c2cc(Cl)ccc2F)c1C (stereo unspecified) | inconclusive: 89.1 µM [inhibitor, single point] | –
CCOC(=O)O[C@H](C)OC(=O)C1N2C(=O)[C@H](NC(=O)[C@H](N)c3ccccc3)C2SC1(C)C (stereo partly specified) | inactive | –

One compound at a time (already shown):
CCOC(=O)c1ccc(NC(=O)c2nc[nH]c2C(=O)NC)cc1 is entered as Potency: inactive
CN(C)CCNC(=O)c1ccc(-n2c(-c3ccccc3)cc3c2CCCC3)cc1 is entered as Potency: inconclusive: 50.1 µM [inhibitor, partial curve, poor fit]
O=C(NNC(=O)c1cccc(Cl)c1)NNC(=O)c1cccc(Cl)c1 is entered as Potency: inactive

(listing goes on)

SMILES | Potency | activity change, negative = inhibition
N#Cc1ccc(C(=O)Nc2ccccc2C(=O)NCCc2ccccc2)cc1 | inactive | –
CCCCc1ccc(/C=C2/C(=O)ON=C2c2ccccc2)s1 | inactive | –
CC(Oc1ccc(F)cc1)C(=O)NCC1(N(C)C)CCCCC1 (stereo unspecified) | inconclusive: 100 µM [inhibitor, partial curve, poor fit] | –
CN(C)C(CNC(=O)c1cc(=O)c2ccccc2o1)c1cccs1 (stereo unspecified) | inactive | –
Cc1ccc(-c2cc3nc(NCCOc4ccccc4Cl)n(C)c(=O)c3s2)cc1 | inconclusive: 0.0794 µM [inhibitor, full curve, poor fit] | –
Cc1ccc(S(=O)(=O)c2cn(CC(=O)Nc3ccc(C)c(Cl)c3)c3ccc(C)cc3c2=O)cc1 | inconclusive: 44.7 µM [inhibitor, partial curve] | –
Cc1ccc(S(=O)(=O)N2CCN(C(=O)CCn3ccc4ccccc43)CC2)cc1 | inconclusive: 50.1 µM [inhibitor, partial curve, poor fit] | –
Cc1cc(C)cc(N(CC(=O)NC2CCCCC2)C(=O)CCCC(=O)Nc2ccccn2)c1 | inactive | –
CCN1CCCC1CNC(=O)C1CCN(S(=O)(=O)c2ccc3c(ccn3CC)c2)CC1 (stereo unspecified) | inconclusive: 100 µM [inhibitor, single point] | –
Cc1nc2nc(SCC(N)=O)[nH]c2cc1Br | inconclusive: 100 µM [inhibitor, partial curve, poor fit] | –
Cc1ccc2nc3c(cc(S(=O)(=O)c4ccccc4)c(=N)n3C3CCCC3)c(=O)n2c1 | inconclusive: 28.2 µM [inhibitor, partial curve, poor fit] | –
O=C(CCc1ncc(-c2ccc(F)cc2F)o1)N1CCN(C(=O)C2CC2)CC1 | inconclusive: 44.7 µM [inhibitor, partial curve, poor fit] | –
CC(C)(C)C(=O)N1N=C(c2ccc3c(c2)OCO3)CC1c1ccc2nccnc2c1 (stereo unspecified) | inactive | –
CCc1nc2nc(C)cc(Nc3cccc(C(F)(F)F)c3)n2n1 | inconclusive: 1.78 µM [inhibitor, full curve, poor fit] | –
Cc1cccc(OCC(=O)Nc2ccc(N3CCN(C(=O)c4ccccc4)CC3)cc2)c1 | inactive | –
Cc1cccc(NC(=O)CSc2nc3c(c(=O)n2CCc2ccccc2)SCC3)c1 | inactive | –
O=C(NCC1CCCN(Cc2cccc(-c3ccco3)c2)C1)c1cccs1 (stereo unspecified) | inconclusive: 10 µM [inhibitor, full curve] | –
O=c1c2c(nc3nc(SCc4ccccc4)[nH]n13)CCC2 | inconclusive: 31.6 µM [inhibitor, single point] | –
N#Cc1nc(-c2ccccc2F)oc1N1CCCCCC1 | inconclusive: 56.2 µM [inhibitor, single point] | –
O=C(Nc1ccc(Br)cc1C(=O)O)c1ccc2c(c1)C(=O)N(Cc1ccccc1)C2=O | inconclusive: 70.8 µM [inhibitor, partial curve, poor fit] | –
CCN(CC)C(=O)CSc1nc(N2CCCC2)c2c(c1C#N)CCCC2 | inconclusive: 50.1 µM [inhibitor, partial curve, poor fit] | –
Cc1ccc(S(=O)(=O)c2cc3c(cc2NC(=O)COc2ccc(C)cc2C)n(C)c(=O)n3C)cc1 | inactive | –

SMILES | Potency | activity change, negative = inhibition
CN(CCc1ccccc1)C(=O)c1cccc(NC(=O)Cc2cccc(NC(=O)C3CCN(C(=O)C4CCCCC4)CC3)c2)c1 | inconclusive: 39.8 µM [inhibitor, single point] | –
CCCc1cc(-c2nc(-c3ccc(Cl)cc3)cs2)ccn1 | inconclusive: 39.8 µM [inhibitor, partial curve, poor fit] | –
CCOC(=O)c1cnc(SC)nc1Oc1cccc(NS(=O)(=O)c2ccc(Cl)cc2)c1 | inactive | –
CC(=O)c1cnc2n(c1=O)CCS2 | inactive | –
Cc1cn(C[C@H](NC(=O)c2cccc(F)c2)C(=O)O)c(=O)[nH]c1=O | inactive | –
COc1ccc(OC)c(/C=N/NC(=O)CCC(=O)Nc2cccc(Cl)c2)c1 | inconclusive: 31.6 µM [inhibitor, single point] | –
CCc1ccc(CNC(=O)CCSCc2ccccc2F)cc1 | inconclusive: 158 µM [inhibitor, partial curve, poor fit] | –
CCOC(=O)C1=CN(Cc2cccc(Br)c2)S(=O)(=O)NC1C (stereo unspecified) | inconclusive: 100 µM [inhibitor, single point] | –
CC(C)(C)OC(=O)NCCCC[C@H](NC(=O)c1nc[nH]c1C(=O)NC(c1ccccc1)c1ccccc1)C(=O)OC(C)(C)C | inactive | –
CCC(C)n1cc(/C=C2\NC(=O)N(CC)C2=O)c2ccccc21 (stereo unspecified) | inconclusive: 31.6 µM [inhibitor, partial curve] | –
COC(=O)c1c(N)c(-c2nc3ccccc3s2)nn1-c1ccccc1 | inconclusive: 39.8 µM [inhibitor, partial curve, poor fit] | –
COc1ccc(N/C=C/C(=O)c2ccc(C(C)C)cc2)cc1Cl | inconclusive: 70.8 µM [inhibitor, partial curve, poor fit] | –
O=C(NC1CCCCC1)C(c1cccs1)N(Cc1cccs1)C(=O)c1ccco1 (stereo unspecified) | inactive | –
COC(=O)c1ccccc1S(=O)(=O)NC(=O)c1ccccc1 | inconclusive: 39.8 µM [inhibitor, partial curve, poor fit] | –
Cc1cc(Nc2cc(Cl)nc(Sc3ccc(NC(=O)C4CC4)cc3)n2)n[nH]1 | inactive | –
O=C(Nc1ccccc1)C1CCCCC1 | inactive | –
CCOc1ccc(-c2cc(C(=O)Nc3cc(OC)c(OC)c(OC)c3)[nH]n2)c(C)c1 | inconclusive: 39.8 µM [inhibitor, full curve, poor fit] | –
Cc1ccc(C)c(NC(=S)NCCN(C2CCCCC2)C2CCCC2)c1 | inconclusive: 39.8 µM [inhibitor, partial curve] | –
Cc1cccc(Oc2ccc3[nH]c(C(=O)NCc4ccco4)cc3c2)c1 | inconclusive: 141 µM [inhibitor, single point] | –
COc1ccc(-c2n[nH]c(=S)n2CC(C)C)cc1 | inconclusive: 39.8 µM [inhibitor, partial curve, poor fit] | –
CC(C)NC(=O)N1CNC(=O)C12CCN(C(=O)[C@@H](N)c1ccccc1)CC2 | inconclusive: 4.47 µM [inhibitor, full curve] | –
O=C(O)COCC(=O)N[C@H]1CO[C@H]2[C@@H]1OC[C@@H]2n1nnnc1Oc1ccc(-n2cncn2)cc1 | inconclusive: 28.2 µM [inhibitor, partial curve] | –
